PubChem BioAssay AID256 (DTP/NCI, 2004)
The list shows only some results of the screen, not a fair sample: it gathers tests that were run many times, whatever their T/C, doses with no T/C, and many T/C values between a quarter and a half above the control. Further doses and runs are listed elsewhere. T/C gives the treated animals as a percentage of the vehicle group. Some doses have a count of surviving animals in place of a T/C: the source holds a T/C of zero for them, seemingly a mark for toxic or unscored doses. Some doses without a T/C left all or most animals alive at the check, yet need not have been tolerated: the source hardly ever lists a survival T/C far under the control, and the zero likely stands for such cases as well. Survivors were counted at the toxicity check, usually on the fifth day, unless a day is given; later deaths do not show. Schedule codes are those of the source, taken here to give the interval after Q, in days (D) or hours (H), and the number of doses after X. Some doses were run more than once; their values stand side by side, smallest first. Where survival is the endpoint, the PubChem record calls one and a half times the control and up active, and a quarter to a half above the control has no call in these data; cut-offs in other NCI protocols can differ. Some T/C values are followed by the survivors on the day toxicity was checked, most often the fifth; where none is given, no animal had died by that day.

System: CD2F1 mice, L1210 leukemia ip, survival T/C
Experiment: NCI In Vivo Anticancer Drug Screen. Data for tumor model L1210 Leukemia (intraperitoneal) in CD2F1 (CDF1) mice
Settings: higher T/C = longer survival
Method in brief: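 In this screen, transplantable tumors were grown in mice given either the compound or its vehicle. Results were expressed as the treated measurement relative to the control measurement.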

[1] = T/C endpoint: mean survival time, dose: 200.0 mg/kg/injection, schedule: Q01DX009 (ip), vehicle: saline with Tween-80

Compound: [Cl][Hg][c]1ccco1
- survivor count (T/C endpoint: mean survival time, dose: 10.0 mg/kg/injection, schedule: Q01DX001 (ip), vehicle: Klucel (hydroxypropylcellulose) (HPC)): 1 of 6
- survivor count (T/C endpoint: mean survival time, dose: 20.0 mg/kg/injection, schedule: Q01DX001 (ip), vehicle: Klucel (hydroxypropylcellulose) (HPC)): 0 of 6
- survivor count (T/C endpoint: mean survival time, dose: 40.0 mg/kg/injection, schedule: Q01DX001 (ip), vehicle: Klucel (hydroxypropylcellulose) (HPC)): 0 of 6

Compound: CC(C)CC#N
- survivor count [1]: 3 of 6
- survivor count (T/C endpoint: mean survival time, dose: 400.0 mg/kg/injection, schedule: Q01DX009 (ip), vehicle: saline with Tween-80): 0 of 6

Compound: COc1cc2cc3c(c(O)c2c(O)c1/C=C/C(C)C)C(=O)CC(C)(OC(C)=O)C3 (stereo unspecified)
- survivor count (T/C endpoint: median survival time, dose: 40.0 mg/kg/injection, schedule: Q01DX009 (ip), vehicle: Klucel (hydroxypropylcellulose) (HPC)): 5 of 6
- survivor count (T/C endpoint: median survival time, dose: 80.0 mg/kg/injection, schedule: Q01DX009 (ip), vehicle: Klucel (hydroxypropylcellulose) (HPC)): 3 of 6
- survivor count (T/C endpoint: median survival time, dose: 160.0 mg/kg/injection, schedule: Q01DX009 (ip), vehicle: Klucel (hydroxypropylcellulose) (HPC)): 0 of 6

Compound: CC1=NCC[N-]C(C)(C)CC(C)=NCC[N-]C(C)(C)C1.[Ni+2].[O-][Cl+3]([O-])([O-])O
- survivor count (T/C endpoint: mean survival time, dose: 400.0 mg/kg/injection, schedule: Q04DX003 (ip), vehicle: saline): 0 of 6

Compound: Cc1ccc(S(=O)(=O)NCl)cc1
- survivor count (T/C endpoint: mean survival time, dose: 100.0 mg/kg/injection, schedule: Q01DX009 (ip), vehicle: saline): 0 of 6

Compound: CC12c3ccccc3C(c3ccccc31)C1C(=O)OC(=O)C12 (stereo unspecified)
- survivor count [1]: 3 of 6

Compound: O=C1C=C(Nc2cccc(C(=O)O)c2)c2ccccc2C1=O
- survivor count (T/C endpoint: mean survival time, dose: 150.0 mg/kg/injection, schedule: Q01DX001 (ip), vehicle: saline): 3 of 6

Compound: CCCCCCCCCCCCCCCC[N+](C)(C)CC#CCCl
- survivor count (T/C endpoint: mean survival time, dose: 25.0 mg/kg/injection, schedule: Q04DX002 (ip), vehicle: saline with Tween-80): 2 of 3
- survivor count (T/C endpoint: mean survival time, dose: 50.0 mg/kg/injection, schedule: Q04DX002 (ip), vehicle: saline with Tween-80): 1 of 3
- survivor count (T/C endpoint: mean survival time, dose: 100.0 mg/kg/injection, schedule: Q04DX002 (ip), vehicle: saline with Tween-80): 0 of 3 and 1 of 3
- survivor count (T/C endpoint: mean survival time, dose: 200.0 mg/kg/injection, schedule: Q04DX002 (ip), vehicle: saline with Tween-80): 0 of 3
- survivor count (T/C endpoint: mean survival time, dose: 400.0 mg/kg/injection, schedule: Q04DX002 (ip), vehicle: saline with Tween-80): 0 of 3

Compound: CN(C)CCN1C(=O)c2cccc3cc(N)cc(c23)C1=O
- T/C (T/C endpoint: mean survival time, dose: 8.0 mg/kg/injection, schedule: Q01DX009 (ip), vehicle: saline with Tween-80): 125 and 136 % of control
- T/C (T/C endpoint: median survival time, dose: 3.2 mg/kg/injection, schedule: Q01DX009 (ip), vehicle: saline with Tween-80): 132 % of control
- T/C (T/C endpoint: median survival time, dose: 4.04 mg/kg/injection, schedule: Q03HX024 (ip), vehicle: water): 127 % of control
- T/C (T/C endpoint: median survival time, dose: 4.7 mg/kg/injection, schedule: Q01DX009 (ip), vehicle: saline with Tween-80): 128 % of control
- T/C (T/C endpoint: median survival time, dose: 4.7 mg/kg/injection, schedule: Q01DX009 (ip), vehicle: saline): 128 % of control
- T/C (T/C endpoint: median survival time, dose: 7.0 mg/kg/injection, schedule: Q01DX009 (ip), vehicle: saline with Tween-80, evaluated on day 30): 133 % of control
- T/C (T/C endpoint: median survival time, dose: 7.0 mg/kg/injection, schedule: Q01DX009 (ip), vehicle: saline with Tween-80, evaluated on day 45): 135 % of control
- T/C (T/C endpoint: median survival time, dose: 7.1 mg/kg/injection, schedule: Q01DX009 (ip), vehicle: saline): 139 % of control
- T/C (T/C endpoint: median survival time, dose: 7.1 mg/kg/injection, schedule: Q01DX009 (ip), vehicle: water): 131 % of control
- T/C (T/C endpoint: median survival time, dose: 8.0 mg/kg/injection, schedule: Q01DX009 (ip), vehicle: acid diluted with saline): 133 % of control
- T/C (T/C endpoint: median survival time, dose: 8.0 mg/kg/injection, schedule: Q01DX009 (ip), vehicle: saline with Tween-80): 130 % of control
- T/C (T/C endpoint: median survival time, dose: 8.12 mg/kg/injection, schedule: Q03HX008 (ip), vehicle: water): 138 % of control [9 of 10 alive]
- T/C (T/C endpoint: median survival time, dose: 10.7 mg/kg/injection, schedule: Q01DX009 (ip), vehicle: saline with Tween-80): 128 % of control
- T/C (T/C endpoint: median survival time, dose: 10.7 mg/kg/injection, schedule: Q01DX009 (ip), vehicle: water): 140 % of control
- T/C (T/C endpoint: median survival time, dose: 12.78 mg/kg/injection, schedule: Q01DX005 (ip), vehicle: saline with Tween-80): 126 % of control
- T/C (T/C endpoint: median survival time, dose: 12.78 mg/kg/injection, schedule: Q01DX005 (ip), vehicle: water): 144 % of control
- T/C (T/C endpoint: median survival time, dose: 12.96 mg/kg/injection, schedule: Q01DX009 (oral), vehicle: water): 125 % of control
- T/C (T/C endpoint: median survival time, dose: 14.5 mg/kg/injection, schedule: Q01DX005 (iv), vehicle: saline with Tween-80): 127 % of control
- T/C (T/C endpoint: median survival time, dose: 14.5 mg/kg/injection, schedule: Q01DX005 (iv), vehicle: water): 134 % of control
- T/C (T/C endpoint: median survival time, dose: 16.0 mg/kg/injection, schedule: Q01DX009 (ip), vehicle: saline with Tween-80, evaluated on day 30): 181 and 206 % of control
- T/C (T/C endpoint: median survival time, dose: 16.0 mg/kg/injection, schedule: Q01DX009 (ip), vehicle: saline with Tween-80, evaluated on day 45): 200 % of control
- T/C (T/C endpoint: median survival time, dose: 16.0 mg/kg/injection, schedule: Q01DX009 (ip), vehicle: saline with Tween-80, evaluated on day 60): 161 % of control
- survivor count (T/C endpoint: median survival time, dose: 18.1 mg/kg/injection, schedule: Q03HX008 (ip), vehicle: water): 7 of 10
- T/C (T/C endpoint: median survival time, dose: 19.3 mg/kg/injection, schedule: Q01DX009 (oral), vehicle: water): 143 % of control
- T/C (T/C endpoint: median survival time, dose: 21.7 mg/kg/injection, schedule: Q04DX003 (ip), vehicle: water): 139 % of control
- T/C (T/C endpoint: median survival time, dose: 24.0 mg/kg/injection, schedule: Q01DX009 (ip), vehicle: acid diluted with saline): 137 % of control
- T/C (T/C endpoint: median survival time, dose: 24.0 mg/kg/injection, schedule: Q01DX009 (ip), vehicle: saline with Tween-80): 143 % of control
- survivor count (T/C endpoint: median survival time, dose: 27.0 mg/kg/injection, schedule: Q03HX008 (ip), vehicle: water): 8 of 10
- survivor count (T/C endpoint: median survival time, dose: 32.0 mg/kg/injection, schedule: Q01DX009 (ip), vehicle: acid diluted with saline): 6 of 6
- T/C (T/C endpoint: median survival time, dose: 32.5 mg/kg/injection, schedule: Q01DX001 (iv), vehicle: water): 126 % of control
- T/C (T/C endpoint: median survival time, dose: 36.0 mg/kg/injection, schedule: Q01DX009 (ip), vehicle: saline with Tween-80): 127 % of control
- T/C (T/C endpoint: median survival time, dose: 42.3 mg/kg/injection, schedule: Q01DX001 (ip), vehicle: water): 126 % of control
- survivor count (T/C endpoint: median survival time, dose: 43.2 mg/kg/injection, schedule: Q01DX005 (ip), vehicle: water): 10 of 10
- T/C (T/C endpoint: median survival time, dose: 48.5 mg/kg/injection, schedule: Q01DX001 (iv), vehicle: water): 131 % of control
- T/C (T/C endpoint: median survival time, dose: 63.9 mg/kg/injection, schedule: Q01DX001 (ip), vehicle: water): 131 % of control
- survivor count (T/C endpoint: median survival time, dose: 64.3 mg/kg/injection, schedule: Q01DX009 (oral), vehicle: water): 8 of 10
- T/C (T/C endpoint: median survival time, dose: 72.4 mg/kg/injection, schedule: Q01DX001 (iv), vehicle: water): 137 % of control [7 of 10 alive]
- survivor count (T/C endpoint: median survival time, dose: 96.0 mg/kg/injection, schedule: Q01DX009 (oral), vehicle: water): 8 of 10
- T/C (T/C endpoint: median survival time, dose: 96.3 mg/kg/injection, schedule: Q01DX001 (ip), vehicle: water): 140 % of control
- survivor count (T/C endpoint: median survival time, dose: 108.0 mg/kg/injection, schedule: Q01DX001 (iv), vehicle: water): 0 of 10
- survivor count (T/C endpoint: median survival time, dose: 144.0 mg/kg/injection, schedule: Q01DX001 (ip), vehicle: water): 5 of 10
- survivor count (T/C endpoint: median survival time, dose: 216.0 mg/kg/injection, schedule: Q01DX001 (ip), vehicle: water): 0 of 10

Compound: CCOc1ccc(NC(=O)C2CCC(C)(C(=O)O)C2(C)C)cc1 (stereo unspecified)
- survivor count (T/C endpoint: mean survival time, dose: 200.0 mg/kg/injection, schedule: Q04DX003 (ip), vehicle: saline with Tween-80): 3 of 6
- survivor count (T/C endpoint: mean survival time, dose: 400.0 mg/kg/injection, schedule: Q04DX003 (ip), vehicle: saline with Tween-80): 1 of 6

Compound: CC[C@@H](C)[C@@H]1NC(=O)C(NC(=O)C(CC(C)C)N(C)C(=O)C2CCCN2C(=O)C(C)O)C(C)OC(=O)C(Cc2ccc(OC)cc2)N(C)C(=O)C2CCCN2C(=O)C(CC(C)C)NC(=O)C(C)C(=O)C(C(C)C)OC(=O)C[C@H]1O (stereo partly specified)
- T/C (T/C endpoint: median survival time, dose: 20.0 micrograms/kg/injection, schedule: Q01DX009 (ip), vehicle: distilled water + alcohol): 131 % of control
- survivor count (T/C endpoint: median survival time, dose: 200.0 micrograms/kg/injection, schedule: Q01DX009 (ip), vehicle: distilled water + alcohol): 5 of 6
- survivor count (T/C endpoint: median survival time, dose: 400.0 micrograms/kg/injection, schedule: Q01DX009 (ip), vehicle: distilled water + alcohol): 1 of 6

Compound: CC1=C(O)C(=O)[C@@H]2O[C@@H]2C1=O
- survivor count (T/C endpoint: mean survival time, dose: 12.5 mg/kg/injection, schedule: Q01DX009 (ip), vehicle: saline): 3 of 6
- survivor count (T/C endpoint: mean survival time, dose: 25.0 mg/kg/injection, schedule: Q01DX009 (ip), vehicle: saline): 0 of 6
